In patent publication US8501446B2 (Vertex Pharmaceuticals Incorporated, priority 2004, dated 2013) one finds Ki data, which are given here for 30 molecules.

Sequences of proteins named here, by UniProt entry; tags and fusion partners are left off. Residues count along the entry.
UniProt O14965, whole entry: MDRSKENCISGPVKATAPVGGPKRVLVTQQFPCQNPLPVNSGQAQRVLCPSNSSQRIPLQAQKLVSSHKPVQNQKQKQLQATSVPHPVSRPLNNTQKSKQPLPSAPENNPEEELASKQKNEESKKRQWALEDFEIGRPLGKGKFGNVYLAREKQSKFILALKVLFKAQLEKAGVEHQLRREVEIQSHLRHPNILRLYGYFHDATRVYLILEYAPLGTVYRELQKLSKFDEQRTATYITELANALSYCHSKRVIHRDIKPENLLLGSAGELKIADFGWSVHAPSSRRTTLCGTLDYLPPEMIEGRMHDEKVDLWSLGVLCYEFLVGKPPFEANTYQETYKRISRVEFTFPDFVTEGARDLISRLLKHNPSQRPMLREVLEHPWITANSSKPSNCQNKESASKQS
UniProt Q13464, whole entry: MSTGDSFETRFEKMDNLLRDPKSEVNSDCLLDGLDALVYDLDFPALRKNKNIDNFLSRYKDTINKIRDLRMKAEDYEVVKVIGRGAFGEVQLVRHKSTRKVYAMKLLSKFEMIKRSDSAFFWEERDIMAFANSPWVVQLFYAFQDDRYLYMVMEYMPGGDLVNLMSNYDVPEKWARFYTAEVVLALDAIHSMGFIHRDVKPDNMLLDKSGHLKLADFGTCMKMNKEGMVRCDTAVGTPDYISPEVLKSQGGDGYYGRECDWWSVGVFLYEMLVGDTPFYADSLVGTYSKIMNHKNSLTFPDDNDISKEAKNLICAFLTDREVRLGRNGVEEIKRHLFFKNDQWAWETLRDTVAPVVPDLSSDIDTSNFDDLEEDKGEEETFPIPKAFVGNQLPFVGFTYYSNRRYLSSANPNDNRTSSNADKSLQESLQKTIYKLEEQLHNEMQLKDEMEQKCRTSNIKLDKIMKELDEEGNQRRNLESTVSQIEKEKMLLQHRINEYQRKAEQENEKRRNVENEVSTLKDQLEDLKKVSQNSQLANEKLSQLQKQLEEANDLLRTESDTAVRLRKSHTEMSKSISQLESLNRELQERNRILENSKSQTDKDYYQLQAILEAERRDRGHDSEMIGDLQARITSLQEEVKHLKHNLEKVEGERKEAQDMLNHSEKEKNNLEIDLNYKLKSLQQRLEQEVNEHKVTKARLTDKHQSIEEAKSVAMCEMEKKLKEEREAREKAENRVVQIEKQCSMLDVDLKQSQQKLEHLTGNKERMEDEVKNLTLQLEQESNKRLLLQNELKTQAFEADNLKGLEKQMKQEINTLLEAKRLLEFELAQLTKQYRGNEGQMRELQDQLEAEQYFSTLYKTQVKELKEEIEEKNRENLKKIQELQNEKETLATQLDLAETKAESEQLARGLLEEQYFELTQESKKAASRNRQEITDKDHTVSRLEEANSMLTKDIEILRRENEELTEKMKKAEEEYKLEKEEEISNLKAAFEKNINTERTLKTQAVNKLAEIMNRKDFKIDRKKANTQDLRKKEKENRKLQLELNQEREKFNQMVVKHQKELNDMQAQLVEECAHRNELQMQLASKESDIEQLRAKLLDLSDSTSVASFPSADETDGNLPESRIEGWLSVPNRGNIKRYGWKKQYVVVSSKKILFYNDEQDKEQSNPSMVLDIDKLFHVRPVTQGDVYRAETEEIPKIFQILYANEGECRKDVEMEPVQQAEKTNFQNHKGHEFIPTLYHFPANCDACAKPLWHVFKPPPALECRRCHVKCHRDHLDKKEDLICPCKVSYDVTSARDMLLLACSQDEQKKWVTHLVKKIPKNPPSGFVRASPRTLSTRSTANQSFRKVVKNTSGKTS
UniProt Q13464, 6-553 limits assumed: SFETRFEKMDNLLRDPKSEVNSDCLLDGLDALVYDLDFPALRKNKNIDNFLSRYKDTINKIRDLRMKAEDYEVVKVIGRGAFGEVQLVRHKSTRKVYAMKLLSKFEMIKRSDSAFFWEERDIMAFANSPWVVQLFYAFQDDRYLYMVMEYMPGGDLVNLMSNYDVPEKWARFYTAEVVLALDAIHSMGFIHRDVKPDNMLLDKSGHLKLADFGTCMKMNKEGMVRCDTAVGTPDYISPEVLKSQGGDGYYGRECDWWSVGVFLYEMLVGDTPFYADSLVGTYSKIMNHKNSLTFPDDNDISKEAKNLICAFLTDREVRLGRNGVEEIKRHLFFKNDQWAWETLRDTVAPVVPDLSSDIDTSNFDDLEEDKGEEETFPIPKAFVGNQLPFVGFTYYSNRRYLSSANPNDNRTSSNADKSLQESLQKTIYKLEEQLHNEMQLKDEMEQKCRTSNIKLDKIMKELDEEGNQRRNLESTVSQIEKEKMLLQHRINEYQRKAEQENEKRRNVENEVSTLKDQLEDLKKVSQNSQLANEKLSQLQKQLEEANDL
UniProt O60674, whole entry: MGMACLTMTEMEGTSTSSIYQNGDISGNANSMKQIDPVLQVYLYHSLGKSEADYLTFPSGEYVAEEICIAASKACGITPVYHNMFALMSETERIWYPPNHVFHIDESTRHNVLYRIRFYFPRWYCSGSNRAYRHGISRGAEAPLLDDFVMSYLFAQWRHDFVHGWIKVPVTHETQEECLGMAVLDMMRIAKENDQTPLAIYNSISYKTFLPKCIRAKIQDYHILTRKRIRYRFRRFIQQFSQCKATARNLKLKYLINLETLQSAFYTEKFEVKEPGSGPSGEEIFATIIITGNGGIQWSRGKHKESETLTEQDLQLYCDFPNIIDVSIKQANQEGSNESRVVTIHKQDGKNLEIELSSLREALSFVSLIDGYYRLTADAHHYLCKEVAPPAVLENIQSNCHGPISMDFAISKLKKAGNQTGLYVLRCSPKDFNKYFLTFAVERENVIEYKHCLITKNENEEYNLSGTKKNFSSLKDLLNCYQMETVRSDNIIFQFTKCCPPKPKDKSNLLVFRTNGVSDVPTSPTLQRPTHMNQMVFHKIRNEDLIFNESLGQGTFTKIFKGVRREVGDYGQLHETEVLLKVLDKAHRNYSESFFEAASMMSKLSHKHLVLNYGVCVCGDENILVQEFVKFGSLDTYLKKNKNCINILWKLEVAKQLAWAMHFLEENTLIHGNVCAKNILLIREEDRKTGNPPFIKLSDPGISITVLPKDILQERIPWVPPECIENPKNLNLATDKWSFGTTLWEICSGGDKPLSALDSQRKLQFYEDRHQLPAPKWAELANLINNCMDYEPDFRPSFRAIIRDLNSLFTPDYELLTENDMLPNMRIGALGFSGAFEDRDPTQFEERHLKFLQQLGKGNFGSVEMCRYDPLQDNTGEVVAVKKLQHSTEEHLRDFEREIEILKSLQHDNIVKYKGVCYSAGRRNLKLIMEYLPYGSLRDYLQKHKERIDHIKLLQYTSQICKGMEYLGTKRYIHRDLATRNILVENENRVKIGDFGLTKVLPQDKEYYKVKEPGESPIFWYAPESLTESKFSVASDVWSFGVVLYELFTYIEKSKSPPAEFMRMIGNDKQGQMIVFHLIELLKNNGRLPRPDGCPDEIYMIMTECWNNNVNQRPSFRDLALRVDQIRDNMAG
UniProt P52333, whole entry: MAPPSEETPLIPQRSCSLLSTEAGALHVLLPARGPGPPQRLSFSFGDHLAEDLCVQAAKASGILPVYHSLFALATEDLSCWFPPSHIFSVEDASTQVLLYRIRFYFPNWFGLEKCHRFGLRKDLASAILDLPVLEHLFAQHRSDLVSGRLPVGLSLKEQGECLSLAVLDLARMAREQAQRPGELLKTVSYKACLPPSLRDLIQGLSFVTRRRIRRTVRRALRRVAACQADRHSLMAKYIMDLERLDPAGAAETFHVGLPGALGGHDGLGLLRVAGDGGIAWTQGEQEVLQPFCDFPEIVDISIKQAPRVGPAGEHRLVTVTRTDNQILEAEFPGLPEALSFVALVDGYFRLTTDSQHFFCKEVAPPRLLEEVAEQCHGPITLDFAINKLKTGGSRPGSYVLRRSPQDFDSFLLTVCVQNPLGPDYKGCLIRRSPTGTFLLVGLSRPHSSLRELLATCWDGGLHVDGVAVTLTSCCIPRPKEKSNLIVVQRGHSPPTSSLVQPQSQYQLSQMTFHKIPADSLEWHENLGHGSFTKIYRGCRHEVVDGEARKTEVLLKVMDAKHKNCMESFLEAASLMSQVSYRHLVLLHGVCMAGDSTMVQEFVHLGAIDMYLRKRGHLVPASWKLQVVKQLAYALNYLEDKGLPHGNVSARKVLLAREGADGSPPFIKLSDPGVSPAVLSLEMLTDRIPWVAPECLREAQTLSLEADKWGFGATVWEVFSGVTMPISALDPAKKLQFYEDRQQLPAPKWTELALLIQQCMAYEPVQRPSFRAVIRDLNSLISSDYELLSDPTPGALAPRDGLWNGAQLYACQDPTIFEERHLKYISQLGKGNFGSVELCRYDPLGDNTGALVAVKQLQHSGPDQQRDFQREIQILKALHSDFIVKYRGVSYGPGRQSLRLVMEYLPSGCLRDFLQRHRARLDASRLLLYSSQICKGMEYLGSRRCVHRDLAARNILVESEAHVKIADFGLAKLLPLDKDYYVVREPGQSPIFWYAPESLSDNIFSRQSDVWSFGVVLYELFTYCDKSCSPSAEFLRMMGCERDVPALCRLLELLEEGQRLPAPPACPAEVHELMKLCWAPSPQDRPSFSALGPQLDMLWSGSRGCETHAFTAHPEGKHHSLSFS
UniProt Q96GD4, whole entry: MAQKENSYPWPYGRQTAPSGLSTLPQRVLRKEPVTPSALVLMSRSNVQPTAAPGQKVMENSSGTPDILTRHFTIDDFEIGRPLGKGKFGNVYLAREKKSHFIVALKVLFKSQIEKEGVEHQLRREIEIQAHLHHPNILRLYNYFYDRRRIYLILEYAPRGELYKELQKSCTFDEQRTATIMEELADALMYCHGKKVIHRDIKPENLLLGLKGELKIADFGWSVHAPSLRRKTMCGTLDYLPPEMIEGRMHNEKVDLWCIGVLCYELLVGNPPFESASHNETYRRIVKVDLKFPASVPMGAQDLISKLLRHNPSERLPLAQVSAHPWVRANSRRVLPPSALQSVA
UniProt Q9UQB9, whole entry: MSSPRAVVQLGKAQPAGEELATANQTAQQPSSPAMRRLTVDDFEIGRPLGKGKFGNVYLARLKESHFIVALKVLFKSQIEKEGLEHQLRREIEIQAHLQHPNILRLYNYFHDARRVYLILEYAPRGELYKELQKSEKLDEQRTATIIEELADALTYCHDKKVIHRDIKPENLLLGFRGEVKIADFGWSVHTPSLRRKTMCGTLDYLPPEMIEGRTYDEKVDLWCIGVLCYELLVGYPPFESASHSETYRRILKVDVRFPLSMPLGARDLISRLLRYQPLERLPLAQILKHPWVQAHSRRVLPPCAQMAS

The structures given here were assigned with low confidence; some may be wrong.

The target of test [1] is full length Aurora-A (AA 1-403) (Homo sapiens, UniProt O14965). Description: Aurora-A inhibition assay, standard coupled enzyme system. In kind it is biochemical. The following applies: read-out: Aurora A Ki; average Ki if more than one value determined. As to the method: (§1) Compounds were screened for their ability to inhibit full length Aurora-A (AA 1-403) activity using a standard coupled enzyme system (Fox et al., Protein Sci. 7, pp. 2249 (1998)). Reactions were carried out in a solution containing 100 mM HEPES (pH 7.5), 10 mM MgCl2, 25 mM NaCl, 300 μM NADH, 1 mM DTT and 3% DMSO. Final substrate concentrations in the assay were 200 μM ATP (Sigma Chemicals, St Louis, Mo.) and 800 μM peptide (LRRASLG, American Peptide, Sunnyvale, Calif.). Reactions were carried out at 30° C. and 35 nM Aurora-A. Final concentrations of the components of the coupled enzyme system were 2.5 mM phosphoenolpyruvate, 200 μM NADH, 60 μg/ml pyruvate kinase and 20 μg/ml lactate dehydrogenase.
An assay stock buffer solution was prepared containing all of the reagents listed above with the exception of ATP and the test compound of interest. The assay stock buffer solution (60 μl) was incubated in a 96 well plate with 2 μl of the test compound of interest at final concentrations spanning 0.002 μM to 30 μM at 30° C. for 10 min. Typically, a 12 point titration was conducted by preparing serial dilutions (from 1 mM compound stocks) with DMSO of the test compounds in daughter plates. The reaction was initiated by the addition of 5 μl of ATP (final concentration 200 μM). Rates of reaction were obtained using a Molecular Devices Spectramax plate reader (Sunnyvale, Calif.) over 10 min at 30° C. The Ki values were determined from the rate data as a function of inhibitor concentration using computerized nonlinear regression (Prism 3.0, Graphpad Software, San Diego, Calif.). Aurora-C activity was screened in a similar manner using Aurora-C protein. Aurora-B activity was screened using a radioactive assay, such as described in Examples 1 and 2, but using Aurora-B protein.

Test [2] deals with ROCK (Homo sapiens, UniProt Q13464). Put plainly: ROCK inhibition assay, standard radioactive enzyme assay ("33P"). Format: biochemical. The note with it: read-out: ROCK 33P Ki, Ki(app). As to the method:
Some compounds were screened for their ability to inhibit ROCK using a standard radioactive enzyme assay. Assays were carried out in a solution containing 100 mM HEPES (pH 7.5), 10 mM MgCl2, 25 mM NaCl, 2 mM DTT, and 1.5% DMSO. Final substrate concentrations in the assay were 13 μM [γ-^33P] ATP (25 mCi ^33P ATP/mmol ATP, Perkin Elmer, Cambridge, Mass./Sigma Chemicals, St Louis, Mo.) and 27 μM Myelin Basic Protein (MBP). Final enzyme concentration in the assay was 5 nM ROCK. Assays were carried out at room temperature. 1.5 μl of DMSO stock containing serial dilutions of the compound of the present invention (concentrations ranging from 10 μM to 2.6 nM) was placed in a 96 well plate. 50 μl of Solution 1 (100 mM HEPES (pH 7.5), 10 mM MgCl2, […]) was added to the plate. The reaction was initiated by addition of 50 μl of Solution 2 (100 mM HEPES (pH 7.5), 10 mM MgCl2, 4 mM DTT, […] and 10 nM ROCK). After 2 hours the reaction was quenched with 50 μL of 30% trichloroacetic acid (TCA, Fisher) containing 9 mM ATP. Transfer of 140 μL of the quenched reaction to a glass fiber filter plate (Corning, Cat. No. 3511) was followed by washing 3 times with 5% TCA. 50 μL of Optima Gold scintillation fluid (Perkin Elmer) was added and the plates were counted on a Top Count (Perkin Elmer). After removing mean background values for all of the data points the data was fit using Prism software to obtain a Ki(app).

Test [3] deals with JAK2 (Homo sapiens, UniProt O60674). Description: JAK2 inhibition assay (radioactive enzyme assay, as for JAK3). Format: biochemical. The note with it: read-out: JAK2 Ki; Ki(app); average Ki if more than one value determined. As to the method:
(§2) Compounds were screened for their ability to inhibit JAK3 using a standard radioactive enzyme assay. 1.5 μL/well of a DMSO stock containing serial dilutions of a compound of the present invention (concentrations ranging from 667 μM to 46 nM) was placed in a 96 well polycarbonate plate. 50 μL per well of kinase buffer (100 mM HEPES (pH 7.4), 10 mM MgCl2, 25 mM NaCl, 1 mM DTT, and 0.01% bovine serum albumin (BSA)) containing 2 μM poly(Glu)4Tyr and 10 μM ATP was also added to the plate. To initiate the reaction, 50 μL kinase buffer containing 2 nM JAK3 enzyme was added. Final ATP concentration was 5 μM [γ-^33P] ATP (200 μCi ^33P ATP/μmol ATP (Perkin Elmer, Cambridge, Mass.). After 20 minutes at room temperature (25° C.), the reaction was stopped by adding 50 μL 20% trichloroacetic acid (TCA)/0.4 mM ATP to each well. The entire content of each well was then transferred to a 96 well glass fiber filter plate using a TomTek Cell Harvester. After washing, 60 μL scintillation fluid was added and ^33P incorporation detected using a Perkin Elmer TopCount. After removing mean background values for all of the data points the data was fit using Prism software to obtain a Ki(app). Inhibition of JAK2 was measured as above except that final poly(Glu)4Tyr concentration was 15 μM and final ATP concentration was 12 μM.

Test [4] addresses JAK3 (Homo sapiens, UniProt P52333). Put plainly: JAK3 inhibition assay (standard radioactive enzyme assay). In kind it is biochemical. The note with it: read-out: JAK3 Ki; Ki(app); average Ki if more than one value determined. As to the method:
as §2

Test [5] addresses Aurora-B (Homo sapiens, UniProt Q96GD4). Description: Aurora-B inhibition assay, radioactive assay. The following applies: read-out: Aurora B Ki, average Ki if more than one value determined.
The target of test [6] is ROCK I (AA 6-553) (Homo sapiens, UniProt Q13464). Put plainly: ROCK inhibition assay, standard coupled enzyme system ("Enzyme"). In kind it is biochemical. The following applies: read-out: ROCK Enzyme Ki; enzyme-linked assay. The protocol: Compounds were screened for their ability to inhibit ROCK I (AA 6-553) activity using a standard coupled enzyme system (Fox et al. (1998) Protein Sci. 7, 2249). Reactions were carried out in a solution containing 100 mM HEPES (pH 7.5), 10 mM MgCl2, 25 mM NaCl, 2 mM DTT and 1.5% DMSO. Final substrate concentrations in the assay were 45 μM ATP (Sigma Chemicals, St Louis, Mo.) and 200 μM peptide (American Peptide, Sunnyvale, Calif.). Reactions were carried out at 30° C. and 45 nM ROCK L. Final concentrations of the components of the coupled enzyme system were 2.5 mM phosphoenolpyruvate, 350 μM NADH, 30 μg/ml pyruvate kinase and 10 μg/ml lactate dehydrogenase.

In test [7] the target is Aurora-C (Homo sapiens, UniProt Q9UQB9). Description: Aurora-C inhibition assay, coupled enzyme system as for Aurora-A. The note with it: read-out: Aurora C Ki; average Ki if more than one value determined. As to the method:
as §1
An assay stock buffer solution was prepared containing all of the reagents listed above with the exception of ATP and the test compound of interest. The assay stock buffer solution (60 μl) was incubated in a 96 well plate with 2 μl of the test compound of interest at final concentrations spanning 0.002 μM to 30 μM at 30° C. for 10 min. […] Rates of reaction were obtained using a Molecular Devices Spectramax plate reader (Sunnyvale, Calif.) over 10 min at 30° C. The Ki values were determined from the rate data as a function of inhibitor concentration using computerized nonlinear regression (Prism 3.0, Graphpad Software, San Diego, Calif.). […]

With `c1ccc(CNc2nccc(-c3c[nH]c4ncccc34)n2)cc1`, the Ki in test [1], in test [2], in test [3] and in test [4] was under 0.5 µM throughout.
Turning to `c1ccc(COc2cccc(-c3c[nH]c4ncccc34)c2)cc1`, the Ki in test [1] was 0.5 to 5 µM; in test [2], under 0.5 µM; in test [3], 0.5 to 5 µM; in test [4] it was under 0.5 µM.
With `COc1ccc(-c2c[nH]c3ncccc23)cc1OC`, the Ki was 0.5 to 5 µM in test [2], over 5 µM in test [3] and 0.5 to 5 µM in test [4].
For `c1ccc(CNc2ccnc(-c3c[nH]c4ncccc34)n2)cc1` [Compound 11, Benzyl-[2-(1H-pyrrolo[2,3-b]pyridin-3-yl)-pyrimidin-4-yl]amine], the Ki was 0.5 to 5 µM in test [1], under 0.5 µM in test [2], under 0.5 µM in test [3] and under 0.5 µM in test [4].
In the case of `O=C(Cc1ccccc1F)Nc1nccc(-c2c[nH]c3ncccc23)n1`, the Ki in test [1] and in test [2] was under 0.5 µM each time.
As for `Fc1cccc(Nc2cc(-c3c[nH]c4ncccc34)ncn2)c1F`, the Ki is under 0.5 µM in test [1], 0.5 to 5 µM in test [2], under 0.5 µM in test [3] and under 0.5 µM in test [4].
For `CC(=O)N1[C@H](C)CN(c2nccc(-c3c[nH]c4ncccc34)n2)C[C@@H]1C`, the Ki in test [1] was 0.5 to 5 µM; in test [2], under 0.5 µM; in test [3], under 0.5 µM; in test [4], under 0.5 µM.
Regarding `COc1ccc(-c2c[nH]c3ncccc23)cc1-c1cnco1`, the Ki in test [2], in test [3] and in test [4] was 0.5 to 5 µM in each case.
For `c1ccc(CN2CCC(Nc3cc(-c4c[nH]c5ncccc45)ncn3)CC2)cc1`, the Ki is 0.5 to 5 µM in test [2], 0.5 to 5 µM in test [3] and over 5 µM in test [4].
With `NC(=O)c1cccc(-c2c[nH]c3ncccc23)c1`, the Ki in test [2], in test [3] and in test [4] was 0.5 to 5 µM in each case.
For the molecule `C[C@@H]1CN(c2nccc(-c3c[nH]c4ncccc34)n2)C[C@H](C)N1`, the Ki was under 0.5 µM in test [2], 0.5 to 5 µM in test [3] and under 0.5 µM in test [4].
With `COc1cc(-c2c[nH]c3ncccc23)ccc1O`, the Ki in test [2] was under 0.5 µM; in test [3] it was 0.5 to 5 µM; in test [4] it was 0.5 to 5 µM.
Turning to `Clc1ccc(CNc2cc(-c3c[nH]c4ncccc34)ncn2)cc1`, the Ki in test [1] was 0.5 to 5 µM; in test [2], under 0.5 µM; in test [3], under 0.5 µM; in test [4], under 0.5 µM.
Regarding `O=C(CCc1ccccc1)Nc1nccc(-c2c[nH]c3ncccc23)n1`, the Ki in test [1] is 0.5 to 5 µM; in test [2] it was under 0.5 µM.
For `c1ccc(Nc2cc(-c3c[nH]c4ncccc34)ncn2)cc1`, the Ki in test [2] is under 0.5 µM; in test [3], 0.5 to 5 µM; in test [4] it was under 0.5 µM.
With `c1ccc2c(c1)CCN(c1cc(-c3c[nH]c4ncccc34)ncn1)C2`, the Ki in test [2], in test [3] and in test [4] was 0.5 to 5 µM in each case.
With `NC(=O)c1ccc(-c2c[nH]c3ncccc23)cc1`, the Ki is 0.5 to 5 µM in test [2], 0.5 to 5 µM in test [3] and under 0.5 µM in test [4].
As for `COc1ccc(-c2c[nH]c3ncccc23)cc1C(N)=O`, the Ki in test [2], in test [3] and in test [4] was 0.5 to 5 µM throughout.
For `Clc1cc(-c2c[nH]c3ncccc23)ccn1`, the Ki is 0.5 to 5 µM in test [1], under 0.5 µM in test [2], 0.5 to 5 µM in test [3] and 0.5 to 5 µM in test [4].
Consider `Nc1cc(-c2c[nH]c3ncccc23)ncn1`, for which the Ki is under 0.5 µM in test [2], 0.5 to 5 µM in test [3] and 0.5 to 5 µM in test [4].
Consider `Fc1cccc(-c2cncnc2-c2c[nH]c3ncccc23)c1F`, for which the Ki in test [1] was 0.5 to 5 µM; in test [2], under 0.5 µM.
Turning to `COc1cc(N[C@@H](C)C(=O)NCCNS(C)(=O)=O)nc(-c2c[nH]c3ncc(Cl)cc23)n1`, the Ki in test [5] was 0.5 to 5 µM; in test [6], 0.5 to 5 µM; in test [7], 0.5 to 5 µM; in test [1], under 0.5 µM.
Regarding `CN1CCCC(Oc2cc(-c3c[nH]c4ncccc34)ncn2)C1` (stereo not shown), the Ki is under 0.5 µM in test [2], 0.5 to 5 µM in test [3] and over 5 µM in test [4].
Turning to `c1ccc(CNc2cc(-c3c[nH]c4ncc(-c5cccnc5)cc34)ncn2)cc1`, the Ki in test [2], in test [3] and in test [4] was under 0.5 µM throughout.
On to `c1cnc2[nH]cc(-c3cc(NCC4CCOCC4)ncn3)c2c1`, for which the values for the Ki in test [2], in test [3] and in test [4] were 0.5 to 5 µM, under 0.5 µM and 0.5 to 5 µM, respectively.
As to `c1cnc2[nH]cc(-c3cc(-c4c[nH]c5ncccc45)ncn3)c2c1`, the Ki in test [1] is 0.5 to 5 µM; in test [2] it was 0.5 to 5 µM; in test [3], under 0.5 µM; in test [4], 0.5 to 5 µM.
`CCNc1cc(-c2c[nH]c3ncccc23)ncn1`: the Ki in test [2] was under 0.5 µM; in test [3], 0.5 to 5 µM; in test [4], 0.5 to 5 µM.
`COc1cccc(CC(=O)Nc2cc(-c3c[nH]c4ncccc34)ncn2)c1`: the Ki in test [2] was under 0.5 µM.
Regarding `COc1cc(-c2c[nH]c3ncccc23)ccc1C(N)=O` [Compound 31, 2-Methoxy-4-(1H-pyrrolo[2,3-b]pyridin-3-yl)-benzamide], the Ki in test [2] is under 0.5 µM; in test [3] it was 0.5 to 5 µM; in test [4] it was under 0.5 µM.
`COc1cc(-c2c[nH]c3ncccc23)ccc1C#N`: the Ki in test [2], in test [3] and in test [4] was 0.5 to 5 µM each time.
